Experimental data taken from the supplement of paper PMC11006884.
The entries are a selection whose mix differs from that of the whole data set.

The chains behind the UniProt entries cited, without tags or fusion partners. Where a name states a change or a piece, a line headed by the entry shows the natural chain unless it says otherwise.
UniProt Q05048: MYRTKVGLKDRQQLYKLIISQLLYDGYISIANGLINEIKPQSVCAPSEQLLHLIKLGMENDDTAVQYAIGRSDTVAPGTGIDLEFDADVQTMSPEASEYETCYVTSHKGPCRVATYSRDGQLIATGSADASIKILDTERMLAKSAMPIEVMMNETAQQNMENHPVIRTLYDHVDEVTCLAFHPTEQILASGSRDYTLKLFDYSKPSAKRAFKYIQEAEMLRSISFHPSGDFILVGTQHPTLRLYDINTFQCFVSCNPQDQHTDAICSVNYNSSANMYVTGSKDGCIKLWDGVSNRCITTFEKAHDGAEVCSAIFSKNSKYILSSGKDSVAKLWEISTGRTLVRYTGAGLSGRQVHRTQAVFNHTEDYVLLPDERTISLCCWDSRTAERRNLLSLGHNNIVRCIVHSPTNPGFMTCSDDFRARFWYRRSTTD
UniProt Q13330: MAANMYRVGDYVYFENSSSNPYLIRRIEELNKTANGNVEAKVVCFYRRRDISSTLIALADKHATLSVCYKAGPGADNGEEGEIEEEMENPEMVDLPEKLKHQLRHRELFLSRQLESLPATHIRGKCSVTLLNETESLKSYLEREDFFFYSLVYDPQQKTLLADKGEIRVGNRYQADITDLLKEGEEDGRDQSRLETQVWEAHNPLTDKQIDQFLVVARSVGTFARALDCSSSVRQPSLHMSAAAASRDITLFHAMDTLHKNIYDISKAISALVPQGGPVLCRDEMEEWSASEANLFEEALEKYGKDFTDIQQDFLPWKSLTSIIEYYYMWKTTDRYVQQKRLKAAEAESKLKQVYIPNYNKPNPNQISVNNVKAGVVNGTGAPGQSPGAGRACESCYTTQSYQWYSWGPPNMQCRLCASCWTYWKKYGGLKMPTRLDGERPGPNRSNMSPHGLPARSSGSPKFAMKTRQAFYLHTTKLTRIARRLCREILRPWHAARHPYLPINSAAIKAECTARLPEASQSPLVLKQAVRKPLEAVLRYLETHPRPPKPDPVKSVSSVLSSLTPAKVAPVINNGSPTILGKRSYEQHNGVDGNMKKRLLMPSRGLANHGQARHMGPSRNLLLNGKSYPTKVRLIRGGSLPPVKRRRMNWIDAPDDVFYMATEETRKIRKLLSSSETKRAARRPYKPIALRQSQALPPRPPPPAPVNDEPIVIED
UniProt Q09028, whole entry, looked up: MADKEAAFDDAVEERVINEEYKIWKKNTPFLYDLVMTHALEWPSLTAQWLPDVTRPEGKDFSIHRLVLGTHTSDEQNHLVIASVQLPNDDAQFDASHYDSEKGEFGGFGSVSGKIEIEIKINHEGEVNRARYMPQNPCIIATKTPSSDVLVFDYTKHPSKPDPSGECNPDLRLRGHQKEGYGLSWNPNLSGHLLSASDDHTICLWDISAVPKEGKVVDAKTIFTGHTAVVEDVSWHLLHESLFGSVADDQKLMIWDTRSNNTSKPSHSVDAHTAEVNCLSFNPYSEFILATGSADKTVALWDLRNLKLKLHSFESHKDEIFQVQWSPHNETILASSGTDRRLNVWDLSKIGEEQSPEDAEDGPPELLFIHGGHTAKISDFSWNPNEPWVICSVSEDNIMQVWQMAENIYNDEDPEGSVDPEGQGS
UniProt Q05086: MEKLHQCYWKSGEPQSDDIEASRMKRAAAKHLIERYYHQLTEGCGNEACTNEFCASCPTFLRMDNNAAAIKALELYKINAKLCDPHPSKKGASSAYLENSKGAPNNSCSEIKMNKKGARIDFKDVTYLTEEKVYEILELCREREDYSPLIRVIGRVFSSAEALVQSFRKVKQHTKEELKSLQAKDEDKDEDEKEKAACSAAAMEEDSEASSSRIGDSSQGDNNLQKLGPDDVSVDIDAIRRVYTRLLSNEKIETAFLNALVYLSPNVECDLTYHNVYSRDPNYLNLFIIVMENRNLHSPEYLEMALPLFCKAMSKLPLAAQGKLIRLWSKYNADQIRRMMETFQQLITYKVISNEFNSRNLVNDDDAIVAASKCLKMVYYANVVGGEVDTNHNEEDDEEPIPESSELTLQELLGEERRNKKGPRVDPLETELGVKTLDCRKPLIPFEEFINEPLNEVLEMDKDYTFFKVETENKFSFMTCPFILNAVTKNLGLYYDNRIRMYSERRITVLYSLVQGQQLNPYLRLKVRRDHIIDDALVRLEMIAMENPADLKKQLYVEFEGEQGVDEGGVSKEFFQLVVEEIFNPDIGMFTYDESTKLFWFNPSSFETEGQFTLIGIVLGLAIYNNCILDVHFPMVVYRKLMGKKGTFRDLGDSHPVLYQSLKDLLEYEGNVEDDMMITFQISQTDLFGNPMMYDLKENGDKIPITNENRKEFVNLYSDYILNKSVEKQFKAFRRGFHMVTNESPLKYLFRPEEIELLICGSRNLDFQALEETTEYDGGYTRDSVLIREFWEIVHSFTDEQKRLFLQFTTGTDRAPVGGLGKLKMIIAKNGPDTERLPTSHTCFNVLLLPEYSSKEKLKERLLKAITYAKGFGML
UniProt Q04637, whole entry, looked up: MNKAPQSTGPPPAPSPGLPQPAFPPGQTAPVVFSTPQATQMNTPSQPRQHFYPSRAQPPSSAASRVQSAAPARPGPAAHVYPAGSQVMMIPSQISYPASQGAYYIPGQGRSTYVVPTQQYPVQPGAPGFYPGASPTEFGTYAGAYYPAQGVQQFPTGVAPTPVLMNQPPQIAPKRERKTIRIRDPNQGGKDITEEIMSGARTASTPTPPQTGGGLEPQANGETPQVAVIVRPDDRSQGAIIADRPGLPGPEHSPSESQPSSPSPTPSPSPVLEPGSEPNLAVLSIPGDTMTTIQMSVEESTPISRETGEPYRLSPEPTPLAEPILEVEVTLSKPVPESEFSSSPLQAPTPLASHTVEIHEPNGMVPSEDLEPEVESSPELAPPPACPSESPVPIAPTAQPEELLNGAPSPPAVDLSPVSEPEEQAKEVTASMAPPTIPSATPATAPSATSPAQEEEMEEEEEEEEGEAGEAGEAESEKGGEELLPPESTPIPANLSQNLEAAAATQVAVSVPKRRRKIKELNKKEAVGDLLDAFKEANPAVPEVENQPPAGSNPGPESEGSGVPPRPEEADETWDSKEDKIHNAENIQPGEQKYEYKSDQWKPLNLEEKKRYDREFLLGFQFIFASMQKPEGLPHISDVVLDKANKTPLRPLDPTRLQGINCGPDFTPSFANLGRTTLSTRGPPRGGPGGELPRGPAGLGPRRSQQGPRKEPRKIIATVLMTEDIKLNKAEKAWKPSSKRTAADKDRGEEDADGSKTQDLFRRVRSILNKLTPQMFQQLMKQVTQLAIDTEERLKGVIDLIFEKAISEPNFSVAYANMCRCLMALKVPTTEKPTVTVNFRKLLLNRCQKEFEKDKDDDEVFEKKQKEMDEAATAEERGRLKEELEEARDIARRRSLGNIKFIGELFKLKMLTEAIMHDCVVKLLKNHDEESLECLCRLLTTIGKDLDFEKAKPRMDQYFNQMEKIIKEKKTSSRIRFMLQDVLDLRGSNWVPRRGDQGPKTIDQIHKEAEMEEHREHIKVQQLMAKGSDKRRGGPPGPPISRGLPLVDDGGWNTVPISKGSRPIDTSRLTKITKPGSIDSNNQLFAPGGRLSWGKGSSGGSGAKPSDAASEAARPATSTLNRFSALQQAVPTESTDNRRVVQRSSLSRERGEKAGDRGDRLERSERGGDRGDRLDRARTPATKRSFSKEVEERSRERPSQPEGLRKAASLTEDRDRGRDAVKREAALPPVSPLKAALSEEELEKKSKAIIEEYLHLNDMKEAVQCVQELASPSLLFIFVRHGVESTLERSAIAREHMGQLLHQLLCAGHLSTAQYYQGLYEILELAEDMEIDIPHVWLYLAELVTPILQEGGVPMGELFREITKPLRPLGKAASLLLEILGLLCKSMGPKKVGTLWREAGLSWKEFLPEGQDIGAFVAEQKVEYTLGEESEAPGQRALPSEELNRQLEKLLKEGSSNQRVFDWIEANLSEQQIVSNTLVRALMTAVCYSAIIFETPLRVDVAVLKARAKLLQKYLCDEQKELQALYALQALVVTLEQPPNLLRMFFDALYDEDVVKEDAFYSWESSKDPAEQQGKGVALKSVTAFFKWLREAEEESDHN
UniProt Q13131: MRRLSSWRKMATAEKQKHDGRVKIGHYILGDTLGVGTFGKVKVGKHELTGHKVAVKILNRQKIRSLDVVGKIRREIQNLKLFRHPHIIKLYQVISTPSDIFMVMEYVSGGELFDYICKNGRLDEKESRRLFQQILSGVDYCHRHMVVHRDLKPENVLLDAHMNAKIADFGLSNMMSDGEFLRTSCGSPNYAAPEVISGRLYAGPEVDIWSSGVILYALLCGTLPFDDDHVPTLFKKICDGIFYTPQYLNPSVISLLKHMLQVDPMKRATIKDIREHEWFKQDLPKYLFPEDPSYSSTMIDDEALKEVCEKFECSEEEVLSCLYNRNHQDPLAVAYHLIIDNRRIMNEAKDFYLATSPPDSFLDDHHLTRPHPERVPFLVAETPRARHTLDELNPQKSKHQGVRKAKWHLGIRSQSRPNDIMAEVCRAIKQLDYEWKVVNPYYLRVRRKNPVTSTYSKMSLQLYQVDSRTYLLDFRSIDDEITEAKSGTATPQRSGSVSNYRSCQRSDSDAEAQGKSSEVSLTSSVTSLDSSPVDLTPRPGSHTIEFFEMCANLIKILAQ
UniProt Q13347, whole entry: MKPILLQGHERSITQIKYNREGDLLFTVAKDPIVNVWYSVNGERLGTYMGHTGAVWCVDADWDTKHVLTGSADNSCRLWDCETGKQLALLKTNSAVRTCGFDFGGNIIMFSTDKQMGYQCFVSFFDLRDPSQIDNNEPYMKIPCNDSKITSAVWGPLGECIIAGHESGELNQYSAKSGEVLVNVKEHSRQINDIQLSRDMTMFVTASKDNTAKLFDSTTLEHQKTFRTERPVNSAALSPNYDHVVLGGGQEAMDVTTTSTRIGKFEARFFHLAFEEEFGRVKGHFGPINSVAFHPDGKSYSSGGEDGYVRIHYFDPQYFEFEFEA
UniProt Q12933: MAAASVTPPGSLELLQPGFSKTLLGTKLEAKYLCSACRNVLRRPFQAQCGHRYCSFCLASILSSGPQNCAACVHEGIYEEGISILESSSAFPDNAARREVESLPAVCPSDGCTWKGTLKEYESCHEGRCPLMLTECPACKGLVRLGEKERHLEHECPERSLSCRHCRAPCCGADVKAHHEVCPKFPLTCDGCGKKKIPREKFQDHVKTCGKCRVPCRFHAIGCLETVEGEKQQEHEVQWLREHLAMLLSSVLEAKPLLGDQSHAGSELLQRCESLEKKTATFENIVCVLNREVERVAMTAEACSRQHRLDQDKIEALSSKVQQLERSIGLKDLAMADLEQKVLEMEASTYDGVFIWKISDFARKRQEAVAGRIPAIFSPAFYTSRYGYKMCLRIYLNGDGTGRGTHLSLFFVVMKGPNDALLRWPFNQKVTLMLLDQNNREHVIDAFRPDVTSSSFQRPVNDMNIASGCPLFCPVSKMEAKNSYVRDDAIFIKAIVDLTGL
UniProt Q08J23, whole entry, looked up: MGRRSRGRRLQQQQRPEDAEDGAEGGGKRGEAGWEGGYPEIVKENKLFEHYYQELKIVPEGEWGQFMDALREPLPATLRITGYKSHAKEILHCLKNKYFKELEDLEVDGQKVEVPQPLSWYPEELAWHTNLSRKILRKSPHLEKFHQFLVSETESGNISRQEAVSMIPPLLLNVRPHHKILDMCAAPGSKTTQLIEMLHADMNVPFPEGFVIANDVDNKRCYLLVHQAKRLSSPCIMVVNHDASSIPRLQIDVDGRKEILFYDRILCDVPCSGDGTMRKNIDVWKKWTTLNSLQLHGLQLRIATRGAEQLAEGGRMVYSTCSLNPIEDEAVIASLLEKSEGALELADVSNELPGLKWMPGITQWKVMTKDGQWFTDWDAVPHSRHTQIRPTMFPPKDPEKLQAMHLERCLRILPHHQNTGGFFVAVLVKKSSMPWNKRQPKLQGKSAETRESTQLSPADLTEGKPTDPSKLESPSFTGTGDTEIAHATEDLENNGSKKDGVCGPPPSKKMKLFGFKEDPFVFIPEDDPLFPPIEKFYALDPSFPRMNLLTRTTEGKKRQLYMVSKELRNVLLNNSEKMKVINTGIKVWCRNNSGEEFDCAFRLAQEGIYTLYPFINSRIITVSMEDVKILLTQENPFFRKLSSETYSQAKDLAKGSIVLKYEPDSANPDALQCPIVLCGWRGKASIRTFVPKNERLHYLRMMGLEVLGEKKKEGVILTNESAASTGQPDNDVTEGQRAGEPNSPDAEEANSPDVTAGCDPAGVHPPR

Each target was assayed with COC(=O)C#Cc1ccccc1 [methyl 3-phenylpropiolate] (assay: log2 ratio of iodoacetamide-alkyne labeling of the cysteine site, DMSO over compound (competition); higher = stronger covalent engagement of the cysteine by the compound, active = 1 or more). Conditions: 500 µM; treatment time 1 h; system: HEK293T cell lysate.
Method in brief: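 HEK293T lysate at 2 mg/mL was treated with vehicle or electrophile (500 µM) for 1 h at ambient temperature, then labelled with iodoacetamide alkyne (1 h), clicked to sCIP-TMT reagents, pooled, digested with trypsin overnight at 37 °C, enriched on streptavidin and eluted with acid. Peptides were analysed by Orbitrap Eclipse LC-MS/MS with FAIMS and quantified in FragPipe, using duplicate channels and three replicates, with cysteines quantified in only one replicate excluded. The log2 competition ratio for each cysteine is the mean control-channel reporter intensity divided by the mean compound-channel reporter intensity.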

log2 ratio of iodoacetamide-alkyne labeling, inactive:
RBPJ C397 (UniProt Q06330) 0.64
UniProt Q02750_C376 -0.129
PPAT C100 (UniProt Q06203) 0.528
CSTF1 C178 (UniProt Q05048) 0.0622
MTA1 C68 (UniProt Q13330) 0.278
UniProt Q09028_C138 0.334
UniProt Q02750_C277 0.399
UBE3A C198 (UniProt Q05086) 0.354
EIF4G1 C1516 (UniProt Q04637) -0.147
ACACA C2075 (UniProt Q13085) -0.155
VAC14 C719 (UniProt Q08AM6) 0.526
PTPN11 C259 (UniProt Q06124) 0.144
GFPT1 C55 (UniProt Q06210) 0.387
RPL18A C22 (UniProt Q02543) 0.313
NCBP1 C261 (UniProt Q09161) 0.0607
UniProt Q13131_C238 0.387
EIF3I C160 (UniProt Q13347) 0.0316
CHAF1A C207 (UniProt Q13111) 0.995
GTF3C1 C431 (UniProt Q12789) 0.123
TRAF2 C287 (UniProt Q12933) 0.192
UniProt Q03188_C612 0.626
NSUN2 C221 (UniProt Q08J23) 0.104

Looked up one by one from the entries so far, two records:
log2 ratio of iodoacetamide-alkyne labeling, inactive:
UBE3A C198 (UniProt Q05086) 0.354
UniProt Q02750_C376 -0.129
